Assay [1] has as its target T1, PRPSAP2-GFP (long PRPSAP2 isoform) (UniProt O60256).
T1 sequence: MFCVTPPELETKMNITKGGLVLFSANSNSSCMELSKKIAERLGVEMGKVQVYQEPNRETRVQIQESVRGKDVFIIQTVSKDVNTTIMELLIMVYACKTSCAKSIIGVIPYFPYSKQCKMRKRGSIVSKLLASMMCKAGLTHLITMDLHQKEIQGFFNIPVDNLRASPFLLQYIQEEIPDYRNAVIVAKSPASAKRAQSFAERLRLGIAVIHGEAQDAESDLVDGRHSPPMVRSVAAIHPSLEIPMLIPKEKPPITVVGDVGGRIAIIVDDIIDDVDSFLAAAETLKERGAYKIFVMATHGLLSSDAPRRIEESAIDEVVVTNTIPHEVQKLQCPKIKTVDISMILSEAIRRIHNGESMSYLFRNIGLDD
Briefly: affinity purification with mass spectrometry; GFP immunoprecipitation (GFP-Trap magnetic particles) from lysates of NIH3T3 cells stably expressing GFP-tagged paralogs; lysis 50 mM Tris pH 7.5, 200 mM NaCl, 1% digitonin; washes with 1.5 M NaCl, 0.5% Triton X-100; eluates by Coomassie gel and nanoLC-MS/MS; NES-GFP cells as control.

The target in assay [2] is T2, PRPS2-GFP (UniProt Q9CS42).
T2 sequence: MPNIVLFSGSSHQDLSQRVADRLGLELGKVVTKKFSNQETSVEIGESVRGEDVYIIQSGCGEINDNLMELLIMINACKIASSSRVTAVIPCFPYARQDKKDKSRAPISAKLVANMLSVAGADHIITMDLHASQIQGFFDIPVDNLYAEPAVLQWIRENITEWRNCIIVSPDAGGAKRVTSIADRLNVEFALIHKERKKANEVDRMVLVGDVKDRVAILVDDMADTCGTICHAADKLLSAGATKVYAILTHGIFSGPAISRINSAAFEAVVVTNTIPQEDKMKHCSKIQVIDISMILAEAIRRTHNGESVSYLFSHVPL
Described as above.

Assay [3] addresses T1, PRPSAP2-GFP (long PRPSAP2 isoform). The assay can be described thus: affinity purification with mass spectrometry; GFP immunoprecipitation (GFP-Trap magnetic particles) from lysates of HEK293T cells stably expressing GFP-tagged paralogs; lysis 50 mM Tris pH 7.5, 200 mM NaCl, 1% digitonin; washes with 1.5 M NaCl, 0.5% Triton X-100; eluates by Coomassie gel and nanoLC-MS/MS; NES-GFP cells as control.

The target of assay [4] is T2, PRPS2-GFP. The assay is described as above.
Assay [5] deals with T3, PRPSAP1-GFP (short PRPSAP1 isoform) (UniProt Q14558).
T3 sequence: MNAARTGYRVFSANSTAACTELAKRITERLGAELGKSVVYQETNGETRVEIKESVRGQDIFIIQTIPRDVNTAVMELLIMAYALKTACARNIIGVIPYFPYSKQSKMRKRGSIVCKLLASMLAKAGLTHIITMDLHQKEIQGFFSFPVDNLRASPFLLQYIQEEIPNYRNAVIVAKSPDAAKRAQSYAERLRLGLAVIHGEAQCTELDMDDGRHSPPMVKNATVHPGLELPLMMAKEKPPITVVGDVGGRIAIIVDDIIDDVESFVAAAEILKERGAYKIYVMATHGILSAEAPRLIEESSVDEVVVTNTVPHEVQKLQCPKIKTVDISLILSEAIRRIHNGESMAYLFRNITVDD
The assay is described as above.

Assay [6] addresses T3, PRPSAP1-GFP (short PRPSAP1 isoform). The assay can be described thus: affinity purification with mass spectrometry; GFP immunoprecipitation (GFP-Trap magnetic particles) from lysates of NIH3T3 cells stably expressing GFP-tagged paralogs; lysis 50 mM Tris pH 7.5, 200 mM NaCl, 1% digitonin; washes with 1.5 M NaCl, 0.5% Triton X-100; eluates by Coomassie gel and nanoLC-MS/MS; NES-GFP cells as control.

For a further assay, the target named is T4, PRPS1-GFP (UniProt Q9D7G0).
T4 sequence: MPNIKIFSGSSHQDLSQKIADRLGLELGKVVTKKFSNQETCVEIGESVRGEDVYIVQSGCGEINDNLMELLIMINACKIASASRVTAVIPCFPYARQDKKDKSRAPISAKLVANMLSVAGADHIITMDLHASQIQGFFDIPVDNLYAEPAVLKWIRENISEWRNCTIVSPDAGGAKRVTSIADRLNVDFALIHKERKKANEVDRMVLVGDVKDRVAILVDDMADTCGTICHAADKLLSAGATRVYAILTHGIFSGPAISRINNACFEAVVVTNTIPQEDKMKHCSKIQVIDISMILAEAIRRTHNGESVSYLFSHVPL
Briefly: affinity purification with mass spectrometry; GFP immunoprecipitation (GFP-Trap magnetic particles) from lysates of HEK293T cells stably expressing GFP-tagged paralogs; lysis 50 mM Tris pH 7.5, 200 mM NaCl, 1% digitonin; washes with 1.5 M NaCl, 0.5% Triton X-100; eluates by Coomassie gel and nanoLC-MS/MS; NES-GFP cells as control.

These are yes or no findings as the source states them, for the method shown. Binding seen in cells or lysates may run through a third protein. A yes stands for co-enrichment or nearness to the bait. Other partners may have been found. Where a sequence is shown, tags or fusion partners need not be part of it.

B1: PRPS-associated protein 1 (PRPSAP1), mouse, endogenous (protein, UniProt Q9D0M1 1-356)
chain: MNAARTGYRVFSANSTAACTELAKRITERLGAELGKSVVYQETNGETRVEIKESVRGQDIFIIQTIPRDVNTAVMELLIMAYALKTACARNIIGVIPYFPYSKQSKMRKRGSIVCKLLASMLAKAGLTHIITMDLHQKEIQGFFSFPVDNLRASPFLLQYIQEEIPNYRNAVIVAKSPDAAKRAQSYAERLRLGLAVIHGEAQCTELDMDDGRHSPPMVKNATVHPGLELPLMMAKEKPPITVVGDVGGRIAIIVDDIIDDVESFVAAAEILKERGAYKIYVMATHGILSAEAPRLIEESPIDEVVVTNTVPHELQKLQCPKIKTVDISLILSEAIRRIHNGESMAYLFRNITVDD
For the molecule B1, the binding entry (in assay [1]; with PRPS2-GFP [2]) was “binds” each time.

B2: PRPS-associated protein 1 (PRPSAP1), human, endogenous (protein, UniProt Q14558 1-356)
chain: MNAARTGYRVFSANSTAACTELAKRITERLGAELGKSVVYQETNGETRVEIKESVRGQDIFIIQTIPRDVNTAVMELLIMAYALKTACARNIIGVIPYFPYSKQSKMRKRGSIVCKLLASMLAKAGLTHIITMDLHQKEIQGFFSFPVDNLRASPFLLQYIQEEIPNYRNAVIVAKSPDAAKRAQSYAERLRLGLAVIHGEAQCTELDMDDGRHSPPMVKNATVHPGLELPLMMAKEKPPITVVGDVGGRIAIIVDDIIDDVESFVAAAEILKERGAYKIYVMATHGILSAEAPRLIEESSVDEVVVTNTVPHEVQKLQCPKIKTVDISLILSEAIRRIHNGESMAYLFRNITVDD
Regarding B2, the binding result (in assay [3]; with PRPS2-GFP [4]) was “binds” throughout.

B3: PRPS-associated protein 2 (PRPSAP2), human, endogenous (protein, UniProt O60256 1-369)
chain: MFCVTPPELETKMNITKGGLVLFSANSNSSCMELSKKIAERLGVEMGKVQVYQEPNRETRVQIQESVRGKDVFIIQTVSKDVNTTIMELLIMVYACKTSCAKSIIGVIPYFPYSKQCKMRKRGSIVSKLLASMMCKAGLTHLITMDLHQKEIQGFFNIPVDNLRASPFLLQYIQEEIPDYRNAVIVAKSPASAKRAQSFAERLRLGIAVIHGEAQDAESDLVDGRHSPPMVRSVAAIHPSLEIPMLIPKEKPPITVVGDVGGRIAIIVDDIIDDVDSFLAAAETLKERGAYKIFVMATHGLLSSDAPRRIEESAIDEVVVTNTIPHEVQKLQCPKIKTVDISMILSEAIRRIHNGESMSYLFRNIGLDD
Take B3: the binding entry (in assay [5]; with PRPS2-GFP [4]) was “binds” in each case.

B4: PRPS-associated protein 2 (PRPSAP2), mouse, endogenous (protein, UniProt Q8R574 1-369)
chain: MFCVAPPELETKMNITKGGLVLFSANSNSSCMELSKKIAERLGVEMGKVQVYQEPNRETRVQIQESVRGKDVFIIQTISKDVNTTIMELLIMVYACKTSCAKSIIGVIPYFPYSKQCKMRKRGSIVSKLLASMMCKAGLTHLITMDLHQKEIQGFFNIPVDNLRASPFLLQYIQEEIPDYRNAVIVAKSPASAKRAQSFAERLRLGIAVIHGEAQDAESDLVDGRHSPPMVRSVAAIHPSLEIPMLIPKEKPPITVVGDVGGRIAIIVDDIIDDVDSFLAAAETLKERGAYKIFVMATHGLLSSDAPRLIEESAIDEVVVTNTIPHEIQKLQCPKIKTVDISMILSEAIRRIHNGESMSYLFRNIGLDD
On to B4, for which the binding result (in assay [6]; in the assay with PRPS2-GFP [2]) was “binds” each time.

B5: phosphoribosyl pyrophosphate synthetase 2 (PRPS2), human, endogenous (enzyme, UniProt P11908 1-318)
chain: MPNIVLFSGSSHQDLSQRVADRLGLELGKVVTKKFSNQETSVEIGESVRGEDVYIIQSGCGEINDNLMELLIMINACKIASSSRVTAVIPCFPYARQDKKDKSRAPISAKLVANMLSVAGADHIITMDLHASQIQGFFDIPVDNLYAEPAVLQWIRENIAEWKNCIIVSPDAGGAKRVTSIADRLNVEFALIHKERKKANEVDRMVLVGDVKDRVAILVDDMADTCGTICHAADKLLSAGATKVYAILTHGIFSGPAISRINNAAFEAVVVTNTIPQEDKMKHCTKIQVIDISMILAEAIRRTHNGESVSYLFSHVPL
Turning to B5, the binding entry (with PRPS1-GFP; in assay [5]; in assay [3]) was “binds” each time.

B6: phosphoribosyl pyrophosphate synthetase 1 (PRPS1), human, endogenous (enzyme, UniProt P60891 1-318)
chain: MPNIKIFSGSSHQDLSQKIADRLGLELGKVVTKKFSNQETCVEIGESVRGEDVYIVQSGCGEINDNLMELLIMINACKIASASRVTAVIPCFPYARQDKKDKSRAPISAKLVANMLSVAGADHIITMDLHASQIQGFFDIPVDNLYAEPAVLKWIRENISEWRNCTIVSPDAGGAKRVTSIADRLNVDFALIHKERKKANEVDRMVLVGDVKDRVAILVDDMADTCGTICHAADKLLSAGATRVYAILTHGIFSGPAISRINNACFEAVVVTNTIPQEDKMKHCSKIQVIDISMILAEAIRRTHNGESVSYLFSHVPL
For B6, the binding result in the assay with PRPS2-GFP [4] is “binds”.

B7: phosphoribosyl pyrophosphate synthetase 1 (PRPS1), mouse, endogenous (enzyme, UniProt Q9D7G0 1-318)
chain: MPNIKIFSGSSHQDLSQKIADRLGLELGKVVTKKFSNQETCVEIGESVRGEDVYIVQSGCGEINDNLMELLIMINACKIASASRVTAVIPCFPYARQDKKDKSRAPISAKLVANMLSVAGADHIITMDLHASQIQGFFDIPVDNLYAEPAVLKWIRENISEWRNCTIVSPDAGGAKRVTSIADRLNVDFALIHKERKKANEVDRMVLVGDVKDRVAILVDDMADTCGTICHAADKLLSAGATRVYAILTHGIFSGPAISRINNACFEAVVVTNTIPQEDKMKHCSKIQVIDISMILAEAIRRTHNGESVSYLFSHVPL
Regarding B7, the binding result with PRPS2-GFP [2] was “binds”.

B8: PRPS1L1, testis-specific PRPS isoform, human, endogenous (enzyme, UniProt P21108 1-318)
chain: MPNIKIFSGSSHQDLSQKIADRLGLELGKVVTKKFSNQETCVEIDESVRGEDVYIVQSGCGEINDSLMELLIMINACKIASASRVTAVIPCFPYARQDKKDKSRSPISAKLVANMLSIAGADHIITMDLHASQIQGFFDIPVDNLYAEPTVLKWIRENIPEWKNCIIVSPDAGGAKRVTSIADQLNVDFALIHKERKKANEVDCIVLVGDVNDRVAILVDDMADTCVTICLAADKLLSAGATRVYAILTHGIFSGPAISRINTACFEAVVVTNTIPQDEKMKHCSKIRVIDISMILAEAIRRTHNGESVSYLFSHVPL
As for B8, the binding result with PRPS1-GFP is on record as “binds”.
